In patent US5633345A (priority 1992, dated 1997):

Experiment: general procedure: solution-phase peptide synthesis; PyBroP/DIEA; WSCD.HCl/HOObt
[1] = late stage modification step, HCl salt (deprotected intermediates)
[2] = coupling step, HCl salt (deprotected intermediates)
[3] = cyclisation step, HCl salt (deprotected intermediates)
[4] = late stage modification step, HCl salt

## Boc-L-Glu(OBzl)-L-MeVal-L-Leu-L-βHOMeVal-D-Hmp-L-MeVal-L-Phe-L-MePhe- L-Pro-OH
[1]
  step yield: 74%

## Boc-L-Glu(OBzl)-L-MeVal-L-Leu-L-βHOMeVal-D-Hmp-L-MeVal-L-Phe-L-MePhe- L-Pro-OPac
[2]
  step yield: 91.9%

## Boc-L-Glu(OcHex)-L-βHOMeVal-D-Hmp-L-MeVal-L-Phe-L-MePhe-L-Pro-OPac
[2]
  step yield: 72.2%

## Boc-L-Leu-L-MeThr(Bzl)-D-Hmp-L-MeVal-L-Phe-L-MePhe-L-Pro-OPac
[2]
  step yield: 52.8%

## Boc-L-Leu-L-βHOMeVal-D-Hmp-L-MeVal-L-Phe-L-MePhe-L-Pro-OPac
[2]
  step yield: 78.7%

## Boc-L-MeVal-L-Phe-L-MePhe-L-Pro-OPac
[2]
  step yield: 86.1%

## Boc-L-aIle-L-Hmb-L-Leu-L-βHOMeVal-D-Hmp-L-MeVal-L-Phe-L-MePhe-L-Pro-OH
[1]
  step yield: 100%

## Boc-L-aIle-L-Hmb-L-Leu-L-βHOMeVal-D-Hmp-L-MeVal-L-Phe-L-MePhe-L-Pro-OPac
[2]
  step yield: 64.5%

## Boc-L-aIle-L-MeVal-L-Glu(OcHex)-L-βHOMeVal-D-Hmp-L-MeVal-L-Phe-L-MePhe-L-Pro
[2]
  step yield: 76.1%

## Boc-L-aIle-L-MeVal-L-Glu(OcHex)-L-βHOMeVal-D-Hmp-L-MeVal-L-Phe-L-MePhe-L-Pro-OH
[1]
  step yield: 100%

## Boc-L-aIle-L-MeVal-L-Leu-L-MeThr(Bzl)-D-Hmp-L-MeVal-L-Phe-L-MePhe-L-Pro-OH
[1]
  step yield: 100%

## Boc-L-aIle-L-MeVal-L-Leu-L-MeThr(Bzl)-D-Hmp-L-MeVal-L-Phe-L-MePhe-L-Pro-OPac
[2]
  step yield: 29.9%

## Boc-L-aIle-L-MeVal-L-Leu-L-βHOMeVal-D-Hmp-L-MeVal-L-Phe-L-MePhe-L-Pro-OH
[1]
  step yield: 100%

## Boc-L-aIle-L-MeVal-L-Leu-L-βHOMeVal-D-Hmp-L-MeVal-L-Phe-L-MePhe-L-Pro-OPac
[2]
  step yield: 59.6%

## Boc-L-aIle-L-ROMeNva-L-Leu-L-βHOMeVal-D-Hmp-L-MeVal-L-Phe-L-MePhe-L-Pro-OH (R: Bzl)
[1]
  step yield: 93.8%

## Boc-L-aIle-L-ROMeNva-L-Leu-L-βHOMeVal-D-Hmp-L-MeVal-L-Phe-L-MePhe-L-Pro-OPac (R: Bzl)
[2]
  step yield: 50.0%

## Cyclo(L-Glu-L-MeVal-L-Leu-L-βHOMeVal-D-Hmp-L-MeVal-L-Phe-L-MePhe-L-Pro)
[1]
  step yield: 89.4%

## Cyclo(L-GluOR-L-MeVal-L-Leu-L-βHOMeVal-D-Hmp-L-MeVal-L-Phe-L-MePhe-L- Pro) (R: n-butyl)
[1]
  step yield: 95.2%

## Cyclo(L-aIle-L-MeVal-L-Glu-L-βHOMeVal-D-Hmp-L-MeVal-L-Phe-L-MePhe-L-Pro)
[1]
  step yield: 90.2%

## Cyclo(L-aIle-L-MeVal-L-GluOR-L-βHOMeVal-D-Hmp-L-MeVal-L-Phe-L-MePhe-L-Pro) (R: cHex)
[3]
  cyclisation yield: 28.6%

## Cyclo(L-aIle-L-MeVal-L-Leu-L-MeThr(Bzl)-D-Hmp-L-MeVal-L-Phe-L-MePhe-L-Pro)
[3]
  cyclisation yield: 15.3%

## Cyclo(L-aIle-L-ROMeNva-L-Leu-L-βHOMeVal-D-Hmp-L-MeVal-L-Phe-L-MePhe-L-Pro) (R: Bzl)
[3]
  cyclisation yield: 34%

## HCl.cndot.H-L-Glu(OBzl)-L-MeVal-L-Leu-L-βHOMeVal-D-Hmp-L-MeVal-L-Phe- L-MePhe-L-Pro-OH
[1]
  step yield: 97.8%

## HCl.cndot.H-L-Glu(OcHex)-L-βHOMeVal-D-Hmp-L-MeVal-L-Phe-L-MePhe-L-Pro-OPac
[4]
  step yield: 87.2%

## HCl.cndot.H-L-Leu-L-MeThr(Bzl)-D-Hmp-L-MeVal-L-Phe-L-MePhe-L-Pro-OPac
[1]
  step yield: 86.0%

## HCl.cndot.H-L-Leu-L-βHOMeVal-D-Hmp-L-MeVal-L-Phe-L-MePhe-L-Pro-OPac
[4]
  step yield: 93.0%

## HCl.cndot.H-L-MeVal-L-Phe-L-MePhe-L-Pro-OPac
[4]
  step yield: 93.0%

## HCl.cndot.H-L-aIle-L-Hmb-L-Leu-L-βHOMeVal-D-Hmp-L-MeVal-L-Phe-L-MePhe-L-Pro-OH
[1]
  step yield: 85.9%

## HCl.cndot.H-L-aIle-L-MeVal-L-Glu(OcHex)-L-βHOMeVal-D-Hmp-L-MeVal-L-Phe-L-MePhe-L-Pro-OH
[4]
  step yield: 95.5%

## HCl.cndot.H-L-aIle-L-MeVal-L-Leu-L-MeThr(Bzl)-D-Hmp-L-MeVal-L-Phe-L-MePhe- L-Pro-OH
[1]
  step yield: 94.2%

## HCl.cndot.H-L-aIle-L-MeVal-L-Leu-L-βHOMeVal-D-Hmp-L-MeVal-L-Phe-L-MePhe-L-Pro-OH
[4]
  step yield: 91.1%

## HCl.cndot.H-L-aIle-L-ROMeNva-L-Leu-L-βHOMeVal-D-Hmp-L-MeVal-L-Phe-L-MePhe-L-pro-OH (R: Bzl)
[1]
  step yield: 93.0%

## PEPTIDE1{[GluOBzl].[MeVal].L.[bHOMeVal].[D-Hmp].[MeVal].F.[MePhe].P}$PEPTIDE1,PEPTIDE1,1:R1-9:R2$$$V2.0
[3]
  cyclisation yield: 5.3%

## PEPTIDE1{[HONva].[MeVal].L.[bHOMeVal].[D-Hmp].[MeVal].F.[MePhe].P}$PEPTIDE1,PEPTIDE1,1:R1-9:R2$$$V2.0
[1]
  step yield: 71%

## PEPTIDE1{[aIle].[HOMeNva].L.[bHOMeVal].[D-Hmp].[MeVal].F.[MePhe].P}$PEPTIDE1,PEPTIDE1,1:R1-9:R2$$$V2.0
[1]
  step yield: 87.3%

## PEPTIDE1{[aIle].[L-Hmb].L.[bHOMeVal].[D-Hmp].[MeVal].F.[MePhe].P}$PEPTIDE1,PEPTIDE1,1:R1-9:R2$$$V2.0
[3]
  cyclisation yield: 27.2%

## PEPTIDE1{[aIle].[MeVal].L.[MeThr].[D-Hmp].[MeVal].F.[MePhe].P}$PEPTIDE1,PEPTIDE1,1:R1-9:R2$$$V2.0
[1]
  step yield: 66.3%

## PEPTIDE1{[aIle].[MeVal].L.[bHOMeVal].[D-Hmp].[MeVal].F.[MePhe].P}$PEPTIDE1,PEPTIDE1,1:R1-9:R2$$$V2.0
[3]
  cyclisation yield: 45.2%
  outcome: the target aureobasidin A could not be synthesized

## PEPTIDE1{[aIle].[MeVal].[HONva].[bHOMeVal].[D-Hmp].[MeVal].F.[MePhe].P}$PEPTIDE1,PEPTIDE1,1:R1-9:R2$$$V2.0
[1]
  step yield: 49.5%

## cyclo(L-GluOR-L-MeVal-L-Leu-L-βHOMeVal-D-Hmp-L-MeVal-L-Phe-L-MePhe-L- Pro) (R: cis-3-hexenyl)
[1]
  step yield: 84.5%

## cyclo(L-GluOR-L-MeVal-L-Leu-L-βHOMeVal-D-Hmp-L-MeVal-L-Phe-L-MePhe-L- Pro) (R: n-decyl)
[1]
  step yield: 98.7%

## cyclo(L-GluOR-L-MeVal-L-Leu-L-βHOMeVal-D-Hmp-L-MeVal-L-Phe-L-MePhe-L- Pro) (R: n-hexyl)
[1]
  step yield: 94.4%

## cyclo(L-GluOR-L-MeVal-L-Leu-L-βHOMeVal-D-Hmp-L-MeVal-L-Phe-L-MePhe-L- Pro) (R: n-octyl)
[1]
  step yield: 53.6%

## cyclo(L-GluOR-L-MeVal-L-Leu-L-βHOMeVal-D-Hmp-L-MeVal-L-Phe-L-MePhe-L- Pro) (R: trans-3-hexenyl)
[1]
  step yield: 80.1%

## cyclo(L-RONva-L-MeVal-L-Leu-L-βHOMeVal-D-Hmp-L-MeVal-L-Phe-L-MePhe-L- Pro) (R: n-hexanoyl)
[1]
  step yield: 100%

HELM strings list residues between dots; [ac] is acetyl, [am] amide, other brackets name non-standard units.
